This data set can be described thus: Growth (body weight) of red seabream during the feeding experiment. It counts as in vivo, red seabream Pagrus major.

In the case of `C[Se]CC[C@H](N)C(=O)O` [Selenomethionine, Seleno-L-methionine], the body weight (2 weeks, diet 1 mg Se/kg added) is given as 313 ± 52 g; the body weight (2 weeks, diet 2 mg Se/kg added) was 309 ± 32 g; the body weight (4 weeks, diet 1 mg Se/kg added) is recorded as 316 ± 22 g; the body weight (4 weeks, diet 2 mg Se/kg added) was found to be 333 ± 33 g; the body weight (5 weeks, diet 1 mg Se/kg added) was determined as 307 ± 65 g; the body weight (5 weeks, diet 2 mg Se/kg added) was found to be 322 ± 45 g.

For `C[N+](C)(C)[C@@H](Cc1cnc([Se-])[nH]1)C(=O)O` [Selenoneine, 2-selenyl-Nα, Nα, Nα-trimethyl-L-histidine], the body weight was determined as 275 ± 56 g (2 weeks, diet 1 mg Se/kg added); 338 ± 39 g (2 weeks, diet 2 mg Se/kg added); 321 ± 47 g (4 weeks, diet 1 mg Se/kg added); 378 ± 58 g (4 weeks, diet 2 mg Se/kg added); 308 ± 52 g (5 weeks, diet 1 mg Se/kg added); 394 ± 61 g (5 weeks, diet 2 mg Se/kg added).

In the case of `O=[Se]([O-])[O-].[Na+].[Na+]` [Sodium selenite, reference compound], the body weight by setting is: (2 weeks, diet 1 mg Se/kg added) 296 ± 46 g; (2 weeks, diet 2 mg Se/kg added) 290 ± 48 g; (4 weeks, diet 1 mg Se/kg added) 359 ± 50 g; (4 weeks, diet 2 mg Se/kg added) 351 ± 62 g; (5 weeks, diet 1 mg Se/kg added) 316 ± 55 g; (5 weeks, diet 2 mg Se/kg added) 363 ± 72 g.

(Values after article PMC10665234, “Nutritional Supplementation and Enhanced Antioxidant Function by Dietary Intake of Selenoneine and Other Selenium Compounds in Red Seabream Pagrus major” (Marine Biotechnology (New York, N.y.), 2023).)
